Patent US20220169628A1 (University of Florida Research Foundation, Incorporated, priority 2019, published 2022)

Tested on: human platelets
Assay: Human platelet viability, MTS assay
Assay type: cell-based
Conditions: IC50 platelets / IC50 MOLT-4
Protocol: FIG. 2. depicts dose response curves of ABT-263 and Compound 53 in MOLT-4 T-ALL cells & human platelets determined by MTS assay.
Cancer cells from different tissue origins including acute lymphoblastic leukemia (MOLT4 and RS4; 11), small cell lung cancer (NCI-H146 or simply H146), and multiple myeloma (EJM and H929) were incubated with increasing concentrations of Examples 1-21 or ABT-263 for 72 h. Cell viability was measured by tetrazolium-based MTS assay. 5×10^4 to 1×10^5 suspension cells or 3×10^3 to 5×10^3 adherent cells were seeded and treated in 96-well plates for 72 h. The EC50 values of individual agents were calculated with GraphPad Prism.

| Structure (SMILES) | Ratio Platelate/ MOLT-4 |
| --- | --- |
| CC1(C)CCC(c2ccc(Cl)cc2)=C(CN2CCN(c3ccc(C(=O)NS(=O)(=O)c4ccc(N[C@H](CCN5CCOCC5)CSc5ccccc5)c(S(=O)(=O)C(F)(F)F)c4)cc3)CC2)C1 [ABT-263, reference compound] | 0.9 |
| Cc1ncsc1-c1ccc([C@H](C)NC(=O)[C@@H]2C[C@@H](O)CN2C(=O)[C@@H](NC(=O)CCCCCCCCC(=O)NCC2(C)CCC(c3ccc(Cl)cc3)=C(CN3CCN(c4ccc(C(=O)NS(=O)(=O)c5ccc(N[C@H](CCN6CCOCC6)CSc6ccccc6)c(S(=O)(=O)C(F)(F)F)c5)cc4)CC3)C2)C(C)(C)C)cc1 (stereo partly drawn) [Compound 53, N^1-((4′-chloro-4-methyl-6-((4-(4-(((4-(((R)-4-morpholino-1-(phenylthio)butan-2-yl)amino)-3-((trifluoromethyl)sulfonyl)phenyl)sulfonyl)carbamoyl)phenyl)piperazin-1-yl)methyl)-2,3,4,5-tetrahydro-[1,1′-biphenyl]-4-yl)methyl)-N^10—((S)-1-((2S,4R)-4-hydroxy-2-(((S)-1-(4-(4-methylthiazol-5-yl)phenyl)ethyl)carbamoyl)pyrrolidin-1-yl)-3,3-dimethyl-1-oxobutan-2-yl)decanediamide] | 43 |
